Laboratory results as given in patent publication US7544814B2, “[3.2.0] Heterocyclic compounds and methods of using the same” (Nereus Pharmaceuticals, Inc., priority 2004, dated 2009).
Some entries share one result that the patent states for a list of compounds.

Biological target: T1, chymotrypsin-like activity of purified rabbit muscle 20S proteasome (Oryctolagus cuniculus, UniProt G1T4Q9)
T1 sequence (G1T4Q9 1-263): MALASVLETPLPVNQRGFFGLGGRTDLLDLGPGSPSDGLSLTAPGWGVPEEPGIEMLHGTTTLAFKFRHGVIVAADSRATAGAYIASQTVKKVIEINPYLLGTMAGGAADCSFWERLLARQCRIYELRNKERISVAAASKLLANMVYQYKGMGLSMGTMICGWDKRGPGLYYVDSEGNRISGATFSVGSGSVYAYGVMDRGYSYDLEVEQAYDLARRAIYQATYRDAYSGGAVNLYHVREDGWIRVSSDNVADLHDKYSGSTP
Assay: In vitro inhibition of 20S proteasome chymotrypsin-like activity (suc-LLVY-AMC)
Settings: summary of Table 6

SMILES: C[C@@]12OC(=O)[C@]1(C(=O)C1=CC(O)CCC1)NC(=O)[C@]2(C)CCCl (stereo partly shown) [Formula II-32]
- EC50 values, chymotrypsin-like activity, range or bound stated in text: greater than 20 μM
